Reference: PubChem BioAssay AID652272 (Drosophila RNAi Screening Center, 2013)

Purpose: 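Genes whose knock-down decreases or increases Hedgehog reporter output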 (primary screen)
Cell system: Drosophila clone 8 (Cl8) cells
Reagent: long dsRNA against Drosophila genes
Read-out: 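Plate reader light from a firefly reporter under a ptc promoter fragment that responds to Hedgehog, with Renilla light as transfection reference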
Scale: firefly Hh reporter signal: higher = more ptc reporter light; Renilla reference signal: higher = more Renilla control light
Rule for the call: 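Called a hit if the two-replicate mean z-score lies below -2 or above +3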
Meaning of the calls: active = hit: reporter lowered or raised; inactive = not a hit
The deposit covers about 21,000 reagents; below is a random part of those that have a named target and a result. Over the whole deposit, 503 (2.4%) were called active. 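Raw plate light values, not normalised; calls rest on replicate z-scores that were not deposited; hits include reporter decreases as well as increases.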 Not stated in the record: the amount of reagent, the time to read-out.

The opening 5 entries, ahead of the listing:
| predicted target | DRSC id | firefly Hh reporter signal, replicate 1 | firefly Hh reporter signal, replicate 2 | firefly Hh reporter signal, replicate 3 | Renilla reference signal, replicate 1 | Renilla reference signal, replicate 2 | Call |
| --- | --- | --- | --- | --- | --- | --- | --- |
| CG15890 | DRSC19737 | 73984 | 1.67e5 | – | 2675 | 6384 | inactive |
| CG17660 | DRSC00513 | 1.13e5 | 94791 | – | 4677 | 3920 | inactive |
| CG7381 | DRSC16238 | 1.42e5 | 90109 | – | 5730 | 3892 | inactive |
| Kdm3 | DRSC16393 | 34672 | 98784 | – | 1402 | 2965 | inactive |
| CG15747 | DRSC19713 | 70578 | 60088 | – | 2755 | 1841 | inactive |

The listing, from the start:
| predicted target | DRSC id | firefly Hh reporter signal, replicate 1 | firefly Hh reporter signal, replicate 2 | firefly Hh reporter signal, replicate 3 | Renilla reference signal, replicate 1 | Renilla reference signal, replicate 2 | Call |
| --- | --- | --- | --- | --- | --- | --- | --- |
| CG15890 | DRSC19737 | 73984 | 1.67e5 | – | 2675 | 6384 | inactive |
| CG17660 | DRSC00513 | 1.13e5 | 94791 | – | 4677 | 3920 | inactive |
| CG7381 | DRSC16238 | 1.42e5 | 90109 | – | 5730 | 3892 | inactive |
| Kdm3 | DRSC16393 | 34672 | 98784 | – | 1402 | 2965 | inactive |
| CG15747 | DRSC19713 | 70578 | 60088 | – | 2755 | 1841 | inactive |
| tud | DRSC04719 | 78322 | 50348 | – | 2011 | 4784 | inactive |
| CG5342 | DRSC15776 | 75014 | 1.16e5 | – | 2579 | 6067 | inactive |
| TM4SF | DRSC04661 | 1.20e5 | 96432 | – | 4140 | 3712 | inactive |
| conv | DRSC07213 | 74160 | 55814 | – | 1845 | 4164 | inactive |
| Galt | DRSC03161 | 75083 | 73529 | – | 3623 | 1767 | inactive |
| CG3038 | DRSC18618 | 70912 | 1.28e5 | – | 2137 | 5398 | inactive |
| ThrRS | DRSC02843 | 56502 | 30620 | – | 2809 | 1531 | inactive |
| Pkc98E | DRSC16791 | 88033 | 1.15e5 | – | 1282 | 2406 | inactive |
| Su(var)205 | DRSC03446 | 1.02e5 | 65396 | – | 4224 | 2834 | inactive |
| CG13031 | DRSC09911 | 1.46e5 | – | – | 1692 | 6576 | inactive |
| Patr-1 | DRSC14159 | 52545 | 48620 | – | 2755 | 2464 | inactive |
| Samtor | DRSC04390 | 1.26e5 | 75146 | – | 4535 | 3356 | inactive |
| Prp31 | DRSC10735 | 84933 | 36477 | – | 4524 | 1652 | inactive |
| CG31797 | DRSC02476 | 73911 | 48388 | – | 1986 | 4820 | inactive |
| CG31797 | DRSC02477 | 77298 | 52691 | – | 2183 | 4852 | inactive |
| dgt6 | DRSC14424 | 76932 | 66897 | – | 1664 | 2034 | inactive |
| nAChRbeta3 | DRSC00325 | 1.14e5 | 97140 | – | 4749 | 4096 | inactive |
| Dnali1 | DRSC16158 | 1.53e5 | 87916 | – | 6217 | 4002 | inactive |
| UQCR-14L | DRSC15288 | 2.26e5 | 1.93e5 | – | 8496 | 6486 | inactive |
| CCT6 | DRSC20095 | 79506 | 71740 | – | 2563 | 2256 | inactive |
| Ugt37A3 | DRSC15937 | 1.34e5 | 1.07e5 | – | 5700 | 2794 | inactive |
| SppL | DRSC15228 | 5.66e5 | 86260 | – | 28880 | 2416 | inactive |
| Drep3 | DRSC06312 | 3.45e5 | 1.28e5 | 71010 | 3140 | 1990 | inactive |
| Drep3 | DRSC07529 | 6.10e5 | 89382 | – | 4341 | 4341 | inactive |
| CG8509 | DRSC20109 | 97105 | 72962 | – | 2701 | 1936 | inactive |
| YL-1 | DRSC02765 | 1.75e5 | 54594 | – | 3786 | 3912 | inactive |
| CG14100 | DRSC10101 | 1.00e5 | 1.09e5 | – | 3616 | 2989 | inactive |
| Nlg2 | DRSC00957 | 4.82e5 | 1.81e5 | – | 19281 | 6490 | inactive |
| Nlg2 | DRSC03578 | 1.09e5 | 46157 | – | 2754 | 5564 | inactive |
| CG11771 | DRSC14379 | 76677 | 89529 | – | 3015 | 3431 | inactive |
| CG14036 | DRSC02361 | 1.22e5 | 52996 | – | 2632 | 5269 | inactive |
| CG46339 | DRSC14136 | 91904 | 63611 | – | 2368 | 1645 | inactive |
| CG1231 | DRSC08267 | 76400 | 44772 | – | 1847 | 3799 | inactive |
| CG13800 (retired record) | DRSC08334 | 64871 | 38129 | – | 1504 | 2888 | inactive |
| CG6333 | DRSC10626 | 2.03e5 | – | – | 7333 | 5516 | inactive |
| CG33543 | DRSC00384 | 92592 | 96333 | – | 2050 | 2092 | inactive |
| CG33543 | DRSC00385 | 1.07e5 | 99356 | – | 2057 | 2416 | inactive |
| Upf1 | DRSC19667 | 1.27e5 | 1.52e5 | – | 1376 | 1656 | active |
| barc | DRSC11792 | 1.15e5 | 66217 | – | 4656 | 2741 | inactive |
| CG9555 | DRSC03264 | 83977 | 37936 | – | 2160 | 3760 | inactive |
| CG17217 | DRSC02592 | 1.38e5 | 94325 | – | 3459 | 7536 | inactive |
| Vha36-3 | DRSC18615 | 1.15e5 | 3.52e5 | – | 4384 | 12776 | inactive |
| CG1265 | DRSC08288 | 1.21e5 | 52384 | – | 3334 | 2188 | inactive |
| Snx6 | DRSC03081 | 1.43e5 | 1.09e5 | – | 5195 | 4759 | inactive |
| Tsp33B | DRSC02418 | 1.02e5 | 56604 | – | 2631 | 4050 | inactive |
| Nup44A | DRSC07248 | 50365 | 50673 | – | 2048 | 2002 | inactive |
| upSET | DRSC11051 | 65664 | 17622 | – | 2070 | 681 | inactive |
| CG42758 | DRSC10021 | 1.25e5 | – | – | 3248 | 3208 | inactive |
| CG18417 | DRSC10319 | 59260 | 60169 | – | 7385 | 4342 | inactive |
| CG6966 | DRSC16156 | 58250 | 86234 | – | 1930 | 2233 | inactive |
| Cyp6a13 | DRSC07375 | 53750 | 30292 | – | 2464 | 1602 | inactive |
| Pi4KIIalpha | DRSC12322 | 1.07e5 | 60396 | – | 3907 | 2327 | inactive |
| Pi4KIIalpha | DRSC12323 | 99586 | 1.51e5 | – | 3865 | 4628 | inactive |
